Assay results reported in the supplement of paper PMC8728848.
This is one part of the list.

Tests used:
Assay in all cases: glycan array binding signal (z-score within array); higher = stronger binding
Settings in all cases: glycan notation: IUPAC condensed, linker removed
[1] = target: Neu5Ac(a2-6)Gal(b1-4)GlcNAc(b1-2)Man(a1-3)[GlcNAc(b1-2)Man(a1-6)]Man(b1-4)GlcNAc(b1-4)GlcNAc
Method in brief: (§1)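 From the Consortium for Functional Glycomics database, 3228 arrays were curated, keeping only those whose protein sequence was available. Binding is given as a within-array Z-score averaged across arrays sharing a protein sequence and across linkers. Negative Z-scores can be read as non-binding.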

[2] = target: Neu5Ac(a2-6)Gal(b1-4)GlcNAc(b1-2)Man(a1-3)[GlcNAc(b1-2)Man(b1-4)GlcNAc(b1-2)Man(a1-6)]Man(b1-4)GlcNAc(b1-4)GlcNAc
Method in brief: as §1

[3] = target: Neu5Ac(a2-6)Gal(b1-4)GlcNAc(b1-2)Man(a1-3)[Man(a1-6)]Man(b1-4)GlcNAc(b1-4)GlcNAc
Method in brief: as §1

[4] = target: Neu5Ac(a2-6)Gal(b1-4)GlcNAc(b1-2)Man(a1-3)[Neu5Ac(a2-6)Gal(b1-4)GlcNAc(b1-2)Man(a1-6)]Man(b1-4)GlcNAc(b1-4)GlcNAc
Method in brief: as §1

[5] = target: Neu5Ac(a2-6)Gal(b1-4)GlcNAc(b1-2)Man(a1-6)Man(b1-4)GlcNAc(b1-4)GlcNAc
Method in brief: as §1

[6] = target: Neu5Ac(a2-6)Gal(b1-4)GlcNAc(b1-2)Man(a1-6)[Gal(b1-4)GlcNAc(b1-2)Man(a1-3)]Man(b1-4)GlcNAc(b1-4)GlcNAc
Method in brief: as §1

[7] = target: Neu5Ac(a2-6)Gal(b1-4)GlcNAc(b1-2)Man(a1-6)[GlcNAc(b1-2)Man(a1-3)]Man(b1-4)GlcNAc(b1-4)GlcNAc
Method in brief: as §1

[8] = target: Neu5Ac(a2-6)Gal(b1-4)GlcNAc(b1-2)Man(a1-6)[Man(a1-3)]Man(b1-4)GlcNAc(b1-4)GlcNAc
Method in brief: as §1

[9] = target: Neu5Ac(a2-6)Gal(b1-4)GlcNAc(b1-3)Gal(b1-3)GlcNAc
Method in brief: as §1

[10] = target: Neu5Ac(a2-6)Gal(b1-4)GlcNAc(b1-3)Gal(b1-4)GlcNAc
Method in brief: as §1

[11] = target: Neu5Ac(a2-6)Gal(b1-4)GlcNAc(b1-3)Gal(b1-4)GlcNAc(b1-3)Gal(b1-4)GlcNAc
Method in brief: as §1

[12] = target: Neu5Ac(a2-6)Gal(b1-4)GlcNAc(b1-3)Gal(b1-4)[Fuc(a1-3)]GlcNAc(b1-3)Gal(b1-4)[Fuc(a1-3)]GlcNAc
Method in brief: as §1

[13] = target: Neu5Ac(a2-6)Gal(b1-4)GlcNAc(b1-3)GalNAc
Method in brief: as §1

[14] = target: Neu5Ac(a2-6)Gal(b1-4)GlcNAc6S
Method in brief: as §1

[15] = target: Neu5Ac(a2-6)GalNAc
Method in brief: as §1

[16] = target: Neu5Ac(a2-6)GalNAc(b1-4)GlcNAc
Method in brief: as §1

[17] = target: Neu5Ac(a2-6)GlcNAc(b1-4)GlcNAc
Method in brief: as §1

[18] = target: Neu5Ac(a2-6)GlcNAc(b1-4)GlcNAc(b1-4)GlcNAc
Method in brief: as §1

[19] = target: Neu5Ac(a2-8)Neu5Ac
Method in brief: as §1

[20] = target: Neu5Ac(a2-8)Neu5Ac(a2-3)Gal(b1-3)GalNAc(b1-4)[Neu5Ac(a2-8)Neu5Ac(a2-3)]Gal(b1-4)Glc
Method in brief: as §1

[21] = target: Neu5Ac(a2-8)Neu5Ac(a2-3)Gal(b1-4)Glc
Method in brief: as §1

[22] = target: Neu5Ac(a2-8)Neu5Ac(a2-3)[Gal(b1-3)GalNAc(b1-4)]Gal(b1-4)Glc
Method in brief: as §1

[23] = target: Neu5Ac(a2-8)Neu5Ac(a2-3)[GalNAc(b1-4)]Gal(b1-4)Glc
Method in brief: as §1

[24] = target: Neu5Ac(a2-8)Neu5Ac(a2-8)Neu5Ac
Method in brief: as §1

[25] = target: Neu5Ac(a2-8)Neu5Ac(a2-8)Neu5Ac(a2-3)Gal(b1-4)Glc
Method in brief: as §1

[26] = target: Neu5Ac(a2-8)Neu5Ac(a2-8)Neu5Ac(a2-3)[GalNAc(b1-4)]Gal(b1-4)Glc
Method in brief: as §1

[27] = target: Neu5Ac(a2-8)Neu5Ac(a2-8)Neu5Ac(a2-8)Neu5Ac(a2-3)[GalNAc(b1-4)]Gal(b1-4)Glc
Method in brief: as §1

[28] = target: Neu5Ac(b2-6)Gal(b1-4)GlcNAc
Method in brief: as §1

[29] = target: Neu5Ac(b2-6)GalNAc
Method in brief: as §1

[30] = target: Neu5Ac9Ac(a2-3)Gal(b1-3)GlcNAc
Method in brief: as §1

[31] = target: Neu5Ac9Ac(a2-3)Gal(b1-4)GlcNAc
Method in brief: as §1

[32] = target: Neu5Ac9Ac(a2-6)Gal(b1-4)GlcNAc
Method in brief: as §1

[33] = target: Neu5Gc(a2-3)Gal(b1-3)GlcNAc
Method in brief: as §1

[34] = target: Neu5Gc(a2-3)Gal(b1-3)[Fuc(a1-4)]GlcNAc
Method in brief: as §1

[35] = target: Neu5Gc(a2-3)Gal(b1-4)Glc
Method in brief: as §1

[36] = target: Neu5Gc(a2-3)Gal(b1-4)GlcNAc
Method in brief: as §1

[37] = target: Neu5Gc(a2-3)Gal(b1-4)[Fuc(a1-3)]GlcNAc
Method in brief: as §1

[38] = target: Neu5Gc(a2-6)Gal(b1-4)GlcNAc
Method in brief: as §1

[39] = target: Neu5Gc(a2-6)GalNAc
Method in brief: as §1

[40] = target: Neu5Gc(b2-6)Gal(b1-4)GlcNAc
Method in brief: as §1

B1: NanH (Corynebacterium diphtheriae), C6JSW6 (protein)
chain: MYSSNRTYSRAILGLSAVLTLSFTSLVAPVNAEEPETVVPATAELEGEVAATLPSAETGLLDAAPPKPVARGAAGDLQLPAVNEKEVFEEGRVIRAPEPDQSRCYRIPALVTAKNGDLLLAFDNRYGGGDGAKTWCRDAPYENMKRINRQNMQTDIQLYRSVDNGQSFEDFGYIAQGTADVRELSYTDPALVTDRTTGKIFAFFVRAYDYRVGQSSAGFNEGDVEAEIQKRDVQDTVVVESLDGGQTWGNMRLLSALTAKVSSISTGDTIFDGRGRFVTSGAGIQLQYGEHAGRLIVPISVDIDPKDSAKFINLAIYSDDHGQTWQAGIGTAGGAGFSGDVSKIVELSDGRLMMSSKDNDKPRWVSYSEDQGENWSTPKRKIIAPPQHPEKHNTGINVGLIRAYPNAPENSAAARVLLYSAPIDQRYSHKHTEDGRNNGWVMGSCDDGKTWSFGRQIEKNRFQYSSMTVMSDGNIGMVYESGDFSTGMNLKFAKFNMAWLGADCHSNEALGLTGDIDKEIVEAQEKAAEATKEAQEAAEKVQKLTEELAAARKENDELKNQVKGFKEAVGDLANEAEDLADKVFKLETAVTEAKEKATVAEKAASDAVTQLQKAESIAEEQKAKAESAAAEAQALREKLERLEGSILTVKENPEAEEIADLSSTAKDAADAARRAATDANGALSGQKQDEEKPAMGLMGILKVLAGIIPLVAIIATIFQTFRLPFNIPGMR
glycan array binding signal (z-score) [1]: 0.122
glycan array binding signal (z-score) [2]: -0.53
glycan array binding signal (z-score) [3]: -0.077
glycan array binding signal (z-score) [4]: 1
glycan array binding signal (z-score) [5]: -0.021
glycan array binding signal (z-score) [6]: -0.99
glycan array binding signal (z-score) [7]: -0.6
glycan array binding signal (z-score) [8]: 0.682
glycan array binding signal (z-score) [9]: -2.99
glycan array binding signal (z-score) [10]: -1.09
glycan array binding signal (z-score) [11]: 0.818
glycan array binding signal (z-score) [12]: -2.13
glycan array binding signal (z-score) [13]: -1.87
glycan array binding signal (z-score) [14]: -0.306
glycan array binding signal (z-score) [15]: -0.982
glycan array binding signal (z-score) [16]: -1.17
glycan array binding signal (z-score) [17]: -0.236
glycan array binding signal (z-score) [18]: -0.915
glycan array binding signal (z-score) [19]: 0.174
glycan array binding signal (z-score) [20]: 0.317
glycan array binding signal (z-score) [21]: -1.02
glycan array binding signal (z-score) [22]: 0.453
glycan array binding signal (z-score) [23]: -0.188
glycan array binding signal (z-score) [24]: -0.296
glycan array binding signal (z-score) [25]: 0.272
glycan array binding signal (z-score) [26]: -0.682
glycan array binding signal (z-score) [27]: -0.496
glycan array binding signal (z-score) [28]: 0.535
glycan array binding signal (z-score) [29]: -0.897
glycan array binding signal (z-score) [30]: 1.84
glycan array binding signal (z-score) [31]: 0.981
glycan array binding signal (z-score) [32]: -0.031
glycan array binding signal (z-score) [33]: 1.37
glycan array binding signal (z-score) [34]: -0.62
glycan array binding signal (z-score) [35]: 0.207
glycan array binding signal (z-score) [36]: -0.068
glycan array binding signal (z-score) [37]: -1.22
glycan array binding signal (z-score) [38]: -1
glycan array binding signal (z-score) [39]: 0.15
glycan array binding signal (z-score) [40]: -0.368
